Primary screen of a compound library

Sequences of proteins named here, by UniProt entry; tags and fusion partners are left off.
UniProt E9BF75, entry or part of it: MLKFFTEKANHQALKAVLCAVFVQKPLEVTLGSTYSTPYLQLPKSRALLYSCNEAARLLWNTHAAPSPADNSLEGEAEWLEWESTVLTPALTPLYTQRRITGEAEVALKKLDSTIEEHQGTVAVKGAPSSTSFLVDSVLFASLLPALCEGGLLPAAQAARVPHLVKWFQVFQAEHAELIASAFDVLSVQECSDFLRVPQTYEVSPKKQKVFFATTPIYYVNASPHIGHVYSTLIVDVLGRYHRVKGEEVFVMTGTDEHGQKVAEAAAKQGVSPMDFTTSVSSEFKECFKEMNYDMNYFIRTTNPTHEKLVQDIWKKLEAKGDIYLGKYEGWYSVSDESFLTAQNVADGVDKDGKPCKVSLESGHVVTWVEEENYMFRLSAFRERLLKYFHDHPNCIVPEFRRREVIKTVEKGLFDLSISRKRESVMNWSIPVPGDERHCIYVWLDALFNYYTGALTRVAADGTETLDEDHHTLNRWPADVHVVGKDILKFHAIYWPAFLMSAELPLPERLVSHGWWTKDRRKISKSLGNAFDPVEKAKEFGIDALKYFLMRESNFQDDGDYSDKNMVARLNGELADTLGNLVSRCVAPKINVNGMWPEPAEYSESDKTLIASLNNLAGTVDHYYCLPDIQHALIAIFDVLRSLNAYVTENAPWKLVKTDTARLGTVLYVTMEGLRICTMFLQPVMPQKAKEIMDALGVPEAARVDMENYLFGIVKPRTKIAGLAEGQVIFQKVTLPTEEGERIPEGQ

The values are deposited in ChEMBL (CHEMBL3988442, “University of Dundee, Small-Polar-MMV Screening Library” (2021)).

LdMetRS: 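Methionyl-tRNA synthetase (putative), Leishmania donovani (UniProt E9BF75). Primary screen of methionyl-tRNA synthetase; the read-out is not stated. The test concentration is not given. Values are per cent inhibition. Of about 68,000 compounds tested this way, about 24 (0.035%) reached 50% or more in at least one test.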
Mtb heat-shock: 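Assay on Mycobacterium tuberculosis, filed only as a heat shock assay from Cornell; the read-out is not stated. The concentration is filed as 10 mM, unlikely as a test dose, so the dose is not known. The record gives no direction; compounds that gave an IC50 in retests scored well above the rest, so higher reads as stronger inhibition. Of about 69,000 compounds tested this way, about 930 (1.4%) reached 50% or more in at least one test.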

All values are in %.
How 0% and 100% were set is not recorded. Most values in the screen are low, and negative values occur.
Compounds were drawn at random from those tested, without regard to their results.

CCCS(=O)(=O)c1ccc(N2CCN(Cc3ccccc3)CC2)nn1 gave LdMetRS: 6.475%; Mtb heat-shock: -1.047%. CC(C)n1c2ccccc2c2c1cc(C(=O)N(C)C)n2S(C)(=O)=O gave LdMetRS: 2.584%; Mtb heat-shock: -13.46%. CC(C)c1nnc(NC(=O)NCc2cccnc2NCCN(C)C)s1 read LdMetRS: 10.47%; Mtb heat-shock: -18.8%. Result for COc1ccc(CNc2nc(C3CC3)nc3c(C)nn(C)c23)cc1 was LdMetRS: 23.08%; Mtb heat-shock: 12.9%. [H][C@@]12COC[C@]1(COC)CN(C(=O)C1CC(F)(F)C1)C2 gave Mtb heat-shock: 9.922%. With O=C(CCc1ccccn1)N1CCCN(C(=O)CC2CCCC2)CC1 the screen gave LdMetRS: 1.105%; Mtb heat-shock: 5.807%. Result for COc1ccc(CNc2nncs2)cc1F was LdMetRS: 24.18%; Mtb heat-shock: 1.742%.

N#Cc1cccc(NC2CC(=O)N(Cc3cccc(F)c3)C2)n1 (centres unmarked) read LdMetRS: 8.541%; Mtb heat-shock: 0.975%. CNCC(=O)N1CCCC1c1n[nH]cc1-c1ccccc1F (centres unmarked) gave LdMetRS: 17.09%. With Cc1ccnc(NCCNC(=O)C2CC3(CCNCC3)CN2C)c1 (centres unmarked) the screen gave LdMetRS: 7.904%; Mtb heat-shock: 7.644%. With Cc1cn2c(n1)C(CNCc1ccc(C)s1)CCC2 (centres unmarked) the screen gave LdMetRS: -5.16%; Mtb heat-shock: -22.18%. CN1CCCC(Cc2ccnc3ccncc23)CC1 (centres unmarked) read LdMetRS: 4.452%; Mtb heat-shock: -10.33%. Result for Cc1nnc([C@]23COC[C@H]2CN(S(=O)(=O)c2cccnc2)C3)o1 was LdMetRS: 12.99%. For COCCN1CCC2(COCc3cnc(N(C)C)nc32)C1.O=C(O)C(F)(F)F (centres unmarked) the result was Mtb heat-shock: -14.41%.

For COc1ccc(C(=O)CN(C2=NCCCCC2)c2ccccc2)cc1 the result was LdMetRS: 10.5%. Cc1nonc1OCCNc1ncnc2sc3c(c12)CCNC3 gave LdMetRS: 11.15%; Mtb heat-shock: 19.66%. For CC(C)c1nnc(NC(=O)NCc2ccc(CO)c(F)c2)s1 the result was LdMetRS: 11.81%; Mtb heat-shock: 3.919%. Cc1ccc(C)c(CN(C)Cc2nnc3ccccn23)c1 read LdMetRS: 5.651%; Mtb heat-shock: -33.31%. For Cc1cc(CNC(=O)NC(C)(CO)C2CC2)c(C)s1 (centres unmarked) the result was LdMetRS: 8.873%; Mtb heat-shock: -3.653%. For O=C(NCC1CCCCO1)c1ccc(-c2ccco2)[nH]c1=O (centres unmarked) the result was LdMetRS: 10.43%; Mtb heat-shock: 10.07%. OC(CNCCn1cccn1)c1cccc(F)c1 (centres unmarked) read LdMetRS: 9.538%; Mtb heat-shock: -12.39%.

For CCS(=O)(=O)NCCNC(=O)N(Cc1ccc(C)o1)C(C)C the result was LdMetRS: 9.059%; Mtb heat-shock: 37.05%. C1CN(CCN2CCOCC2)CCN1 gave LdMetRS: 12.7%; Mtb heat-shock: -1.447%.

The last 2 entries again:

compound,LdMetRS,Mtb heat-shock
CCS(=O)(=O)NCCNC(=O)N(Cc1ccc(C)o1)C(C)C,9.059,37.05
C1CN(CCN2CCOCC2)CCN1,12.7,-1.447